Experimental data: publication PMC11522702
These are yes or no findings as the source states them, for the method shown. Binding seen in cells or lysates may run through a third protein. Some results given as binding are weak or reduced against the parent protein; the word gives no strength.

Protein sequences, listed by entry. Tags and fused reporters are not part of them. Residues count along the entry.
UniProt P30532, residues 23-468: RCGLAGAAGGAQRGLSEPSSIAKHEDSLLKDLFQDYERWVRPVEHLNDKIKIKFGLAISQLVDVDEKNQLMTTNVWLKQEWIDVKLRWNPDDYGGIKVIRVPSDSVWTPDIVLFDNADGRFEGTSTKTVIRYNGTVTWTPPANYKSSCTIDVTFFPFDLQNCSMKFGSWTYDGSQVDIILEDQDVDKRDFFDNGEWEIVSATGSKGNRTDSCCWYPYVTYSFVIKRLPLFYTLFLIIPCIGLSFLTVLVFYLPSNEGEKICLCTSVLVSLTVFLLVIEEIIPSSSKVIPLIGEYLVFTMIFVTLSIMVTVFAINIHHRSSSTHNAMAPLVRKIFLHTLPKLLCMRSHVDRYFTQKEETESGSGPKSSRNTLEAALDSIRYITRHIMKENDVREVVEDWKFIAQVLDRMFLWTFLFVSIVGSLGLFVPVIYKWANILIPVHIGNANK

Target: Flag-CHRNA5 (UniProt P30532)
Assay: co-IP; Flag-CHRNA5 overexpressed in Cal27 and Tu686 cells; IP with magnetic beads conjugated with anti-Flag antibody; western blot with antibodies against FLAG and CES1; IgG as negative control

- binding: binds
B1: CES1 (enzyme, UniProt P23141 18-567)
chain: GHPSSPPVVDTVHGKVLGKFVSLEGFAQPVAIFLGIPFAKPPLGPLRFTPPQPAEPWSFVKNATSYPPMCTQDPKAGQLLSELFTNRKENIPLKLSEDCLYLNIYTPADLTKKNRLPVMVWIHGGGLMVGAASTYDGLALAAHENVVVVTIQYRLGIWGFFSTGDEHSRGNWGHLDQVAALRWVQDNIASFGGNPGSVTIFGESAGGESVSVLVLSPLAKNLFHRAISESGVALTSVLVKKGDVKPLAEQIAITAGCKTTTSAVMVHCLRQKTEEELLETTLKMKFLSLDLQGDPRESQPLLGTVIDGMLLLKTPEELQAERNFHTVPYMVGINKQEFGWLIPMQLMSYPLSEGQLDQKTAMSLLWKSYPLVCIAKELIPEATEKYLGGTDDTVKKKDLFLDLIADVMFGVPSVIVARNHRDAGAPTYMYEFQYRPSFSSDMKPKTVIGDHGDELFSVFGAPFLKEGASEEEIRLSKMVMKFWANFARNGNPNGEGLPHWPEYNQKEGYLQIGANTQAAQKLKDKEVAFWTNLFAKKAVEKPPQTEHIEL
